Test results: paper PMC5004903
These are yes or no findings as the source states them, for the method shown. In cells and extracts the contact can be indirect. Some results given as binding are weak or reduced against the parent protein; the word gives no strength.

Amino acid sequences for entries named in this document (tags omitted).
UniProt Q61188: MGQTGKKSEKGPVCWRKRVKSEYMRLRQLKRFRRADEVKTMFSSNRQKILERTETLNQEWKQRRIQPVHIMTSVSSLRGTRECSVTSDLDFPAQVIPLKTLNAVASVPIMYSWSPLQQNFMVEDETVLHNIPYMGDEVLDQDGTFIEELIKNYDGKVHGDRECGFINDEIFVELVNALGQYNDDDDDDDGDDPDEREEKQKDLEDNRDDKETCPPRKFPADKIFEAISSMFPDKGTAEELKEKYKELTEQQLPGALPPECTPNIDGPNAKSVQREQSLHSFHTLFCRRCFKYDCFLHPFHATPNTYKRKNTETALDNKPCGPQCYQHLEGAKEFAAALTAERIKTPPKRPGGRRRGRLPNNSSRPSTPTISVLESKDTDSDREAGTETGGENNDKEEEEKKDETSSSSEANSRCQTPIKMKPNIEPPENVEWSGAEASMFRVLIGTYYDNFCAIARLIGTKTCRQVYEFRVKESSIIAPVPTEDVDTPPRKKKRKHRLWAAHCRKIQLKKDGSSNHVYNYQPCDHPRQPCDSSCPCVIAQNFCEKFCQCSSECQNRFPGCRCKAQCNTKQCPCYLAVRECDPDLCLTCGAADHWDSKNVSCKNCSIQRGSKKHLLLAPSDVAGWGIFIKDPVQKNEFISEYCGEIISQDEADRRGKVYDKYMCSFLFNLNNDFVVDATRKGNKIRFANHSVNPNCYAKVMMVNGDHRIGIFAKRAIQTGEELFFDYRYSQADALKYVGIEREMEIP
UniProt Q02395: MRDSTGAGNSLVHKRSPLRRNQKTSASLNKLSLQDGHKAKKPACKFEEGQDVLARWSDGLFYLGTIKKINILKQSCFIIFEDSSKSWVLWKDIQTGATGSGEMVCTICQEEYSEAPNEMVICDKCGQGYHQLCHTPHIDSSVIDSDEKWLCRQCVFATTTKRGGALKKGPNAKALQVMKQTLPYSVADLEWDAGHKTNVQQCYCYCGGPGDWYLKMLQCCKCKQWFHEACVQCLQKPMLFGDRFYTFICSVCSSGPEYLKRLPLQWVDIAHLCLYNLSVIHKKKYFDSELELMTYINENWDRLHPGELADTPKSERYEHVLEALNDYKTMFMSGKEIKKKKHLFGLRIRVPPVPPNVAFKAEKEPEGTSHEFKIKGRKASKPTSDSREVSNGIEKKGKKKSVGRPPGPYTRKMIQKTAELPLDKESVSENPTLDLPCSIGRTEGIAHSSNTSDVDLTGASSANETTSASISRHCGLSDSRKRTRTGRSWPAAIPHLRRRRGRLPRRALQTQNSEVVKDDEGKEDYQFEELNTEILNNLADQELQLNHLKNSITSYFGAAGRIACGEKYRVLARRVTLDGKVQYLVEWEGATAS

Columns and labels:
Assay in all cases: co-IP; immunoprecipitation of endogenous EZH2, JARID2 and AEBP2 in E14 mESCs, immunoblot
[1] = molecular target: T1, AEBP2 (endogenous) (mouse (endogenous in E14 mESCs)) (UniProt Q9Z248)
T1 sequence: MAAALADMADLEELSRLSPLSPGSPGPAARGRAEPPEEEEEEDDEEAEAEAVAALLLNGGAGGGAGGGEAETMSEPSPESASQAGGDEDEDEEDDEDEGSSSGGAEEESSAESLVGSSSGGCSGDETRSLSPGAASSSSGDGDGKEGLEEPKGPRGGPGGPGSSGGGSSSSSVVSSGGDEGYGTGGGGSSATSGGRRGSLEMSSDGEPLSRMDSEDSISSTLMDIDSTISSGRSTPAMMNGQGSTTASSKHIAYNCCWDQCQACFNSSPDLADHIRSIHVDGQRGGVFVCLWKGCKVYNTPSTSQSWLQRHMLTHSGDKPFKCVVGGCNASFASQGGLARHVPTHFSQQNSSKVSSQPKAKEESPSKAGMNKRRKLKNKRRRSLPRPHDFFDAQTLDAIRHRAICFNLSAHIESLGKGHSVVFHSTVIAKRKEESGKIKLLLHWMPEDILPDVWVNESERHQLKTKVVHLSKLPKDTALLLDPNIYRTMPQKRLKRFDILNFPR

[2] = molecular target: T2, JARID2 (endogenous) (mouse (endogenous in E14 mESCs)) (UniProt Q62315)
T2 sequence: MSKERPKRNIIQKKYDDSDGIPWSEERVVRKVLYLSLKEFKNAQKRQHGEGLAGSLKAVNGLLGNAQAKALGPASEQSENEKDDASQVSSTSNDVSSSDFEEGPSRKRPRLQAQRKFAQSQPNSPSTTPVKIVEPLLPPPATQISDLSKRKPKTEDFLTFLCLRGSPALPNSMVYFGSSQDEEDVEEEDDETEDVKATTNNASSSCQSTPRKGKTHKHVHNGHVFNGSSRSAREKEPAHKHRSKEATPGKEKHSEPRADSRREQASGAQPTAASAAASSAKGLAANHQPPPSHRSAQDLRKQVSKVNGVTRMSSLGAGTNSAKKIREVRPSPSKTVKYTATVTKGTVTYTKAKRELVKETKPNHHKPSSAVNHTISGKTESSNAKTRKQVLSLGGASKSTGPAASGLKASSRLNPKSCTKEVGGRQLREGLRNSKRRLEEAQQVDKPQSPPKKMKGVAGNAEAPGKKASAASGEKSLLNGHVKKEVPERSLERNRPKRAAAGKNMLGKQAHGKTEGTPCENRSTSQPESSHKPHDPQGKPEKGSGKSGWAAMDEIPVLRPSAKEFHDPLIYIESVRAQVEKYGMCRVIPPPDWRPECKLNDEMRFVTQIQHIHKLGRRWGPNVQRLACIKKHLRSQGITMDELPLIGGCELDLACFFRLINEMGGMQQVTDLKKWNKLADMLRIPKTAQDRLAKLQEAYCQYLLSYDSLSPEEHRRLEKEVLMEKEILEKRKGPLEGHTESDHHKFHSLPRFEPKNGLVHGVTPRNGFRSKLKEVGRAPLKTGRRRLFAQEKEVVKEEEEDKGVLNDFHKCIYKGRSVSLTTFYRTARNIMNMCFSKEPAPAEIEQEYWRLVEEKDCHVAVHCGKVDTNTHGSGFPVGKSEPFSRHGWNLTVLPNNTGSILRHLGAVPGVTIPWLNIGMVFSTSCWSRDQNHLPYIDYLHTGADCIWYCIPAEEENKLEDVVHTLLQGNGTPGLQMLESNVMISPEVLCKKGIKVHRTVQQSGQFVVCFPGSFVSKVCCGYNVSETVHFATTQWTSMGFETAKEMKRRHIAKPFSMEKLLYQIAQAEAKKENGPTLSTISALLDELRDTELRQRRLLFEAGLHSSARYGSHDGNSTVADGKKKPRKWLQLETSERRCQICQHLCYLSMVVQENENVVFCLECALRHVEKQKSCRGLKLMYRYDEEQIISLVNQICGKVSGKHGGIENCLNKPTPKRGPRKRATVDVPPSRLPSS

[3] = molecular target: EZH2 (endogenous) (mouse (endogenous in E14 mESCs)) (UniProt Q61188)

- binding [1]: no binding
- binding [2]: binds weakly
- binding [3]: binds
Substance: PCL2 (MTF2), endogenous (from UniProt Q02395 1-593)
